The test concerns L1210 leukemia ip in BDF1 mice, survival T/C. Nature of the test: NCI In Vivo Anticancer Drug Screen. Data for tumor model L1210 Leukemia (intraperitoneal) in B6D2F1 (BDF1) mice. To be noted: T/C endpoint: mean survival time, higher T/C = longer survival.
Where [1] appears, read: dose: 200.0 mg/kg/injection, schedule: Q01DX009 (ip), vehicle: saline.
Setting [2] is: dose: 400.0 mg/kg/injection, schedule: Q01DX009 (ip), vehicle: saline.
The mark [3] stands for this setting: dose: 50.0 mg/kg/injection, schedule: Q01DX009 (ip), vehicle: saline with Tween-80.
The mark [4] stands for this setting: dose: 100.0 mg/kg/injection, schedule: Q01DX009 (ip), vehicle: saline with Tween-80.
[5] abbreviates: dose: 100.0 mg/kg/injection, schedule: Q04DX002 (ip), vehicle: Klucel (hydroxypropylcellulose) (HPC).
The mark [6] stands for this setting: dose: 200.0 mg/kg/injection, schedule: Q04DX002 (ip), vehicle: Klucel (hydroxypropylcellulose) (HPC).
Setting [7] is: dose: 400.0 mg/kg/injection, schedule: Q04DX002 (ip), vehicle: Klucel (hydroxypropylcellulose) (HPC).
Setting [8] is: dose: 150.0 mg/kg/injection, schedule: Q01DX001 (ip), vehicle: carboxymethylcellulose (CMC).
Where [9] appears, read: dose: 300.0 mg/kg/injection, schedule: Q01DX001 (ip), vehicle: carboxymethylcellulose (CMC).
Where [10] appears, read: dose: 400.0 mg/kg/injection, schedule: Q01DX001 (ip), vehicle: carboxymethylcellulose (CMC).
The mark [11] stands for this setting: dose: 300.0 mg/kg/injection, schedule: Q01DX001 (ip), vehicle: saline.
Setting [12] is: dose: 200.0 mg/kg/injection, schedule: Q04DX003 (ip), vehicle: saline with Tween-80.
[13] abbreviates: dose: 400.0 mg/kg/injection, schedule: Q04DX003 (ip), vehicle: saline with Tween-80.
[14] abbreviates: dose: 200.0 mg/kg/injection, schedule: Q01DX001 (ip), vehicle: carboxymethylcellulose (CMC).
[15] abbreviates: dose: 400.0 mg/kg/injection, schedule: Q01DX001 (ip), vehicle: Klucel (hydroxypropylcellulose) (HPC).
Where [16] appears, read: dose: 400.0 mg/kg/injection, schedule: Q04DX003 (ip), vehicle: Klucel (hydroxypropylcellulose) (HPC).

The list is a part of this screen's results and no random one: it gathers tests that were run many times, whatever their T/C, doses with no T/C, and many T/C values between a quarter and a half above the control. Further doses and runs are listed elsewhere. T/C: endpoint of the treated group in % of that of the vehicle group. Some entries give survivors of the animals treated and no T/C: the source files T/C as zero there, which appears to mark a toxic dose or a test without result, not a measured value. Some doses without a T/C left all or most animals alive at the check, yet need not have been tolerated: the source hardly ever lists a survival T/C far under the control, and the zero likely stands for such cases as well. Survivors were counted at the toxicity check, usually on the fifth day, unless a day is given; later deaths do not show. Schedule codes are those of the source, taken here to give the interval after Q, in days (D) or hours (H), and the number of doses after X. Where survival is the endpoint, this PubChem deposit counts one and a half times the control or more as active, and values a quarter to a half above the control carry no call in these data; other NCI protocols may use other cut-offs. Some T/C values are followed by the survivors on the day toxicity was checked, most often the fifth; without a count, all were alive then.

Regarding `CC1CCCC(C)N1C(=O)Nc1cccc(C(F)(F)F)c1` (stereo not drawn), the survivor count (dose: 400.0 mg/kg/injection, schedule: Q01DX009 (ip), vehicle: gum acacia) is on record as 4 of 6.
As for `NC(N)=Nc1ccc(C(=O)Oc2ccc([N+](=O)[O-])cc2Cl)cc1`, the survivor count is given as 5 of 6 (dose: 100.0 mg/kg/injection, schedule: Q01DX009 (ip), vehicle: saline); 1 of 6 under setting [1]; 0 of 6 under setting [2]; 1 of 6 (dose: 400.0 mg/kg/injection, schedule: Q04DX003 (ip), vehicle: saline).
Regarding `c1ccc2c(C(CCN3CCOCC3)(CCN3CCOCC3)CNC3=NCCN3)cccc2c1`, the survivor count reads like this: under setting [3], 3 of 6; under setting [4], 2 of 6.
For `O=C1O/C(=C\c2ccccc2)C(O)=C1c1ccccc1`, the survivor count is 0 of 3 (dose: 200.0 mg/kg/injection, schedule: Q01DX001 (ip), vehicle: saline with Tween-80) and 0 of 3 (dose: 400.0 mg/kg/injection, schedule: Q01DX001 (ip), vehicle: saline with Tween-80).
`O=c1scc(-c2ccc(Br)cc2)s1`: the survivor count is on record as 1 of 3 under setting [5], 0 of 3 under setting [6] and 0 of 3 under setting [7].
Take `CCCCC(C)(CCN)CCCC`: where the note is “dose: 200.0 mg/kg/injection, schedule: Q01DX015 (ip), vehicle: carboxymethylcellulose (CMC)”, the survivor count was 0 of 6.
For the compound `CC(Cc1ccccc1)NCCCCl` (stereo not drawn), the survivor count is, setting by setting: (dose: 75.0 mg/kg/injection, schedule: Q01DX001 (ip), vehicle: carboxymethylcellulose (CMC)) 2 of 6; under setting [8], 1 of 6; under setting [9], 0 of 6.
Regarding `Clc1ccc(-c2cc(=[N+]3CCC4(CC3)SSC3(CC[N+](=c5cc(-c6ccc(Cl)cc6)ss5)CC3)S4)ss2)cc1` (stereo not drawn), where the note is “dose: 200.0 mg/kg/injection, schedule: Q01DX009 (ip), vehicle: water”, the survivor count was 6 of 6.
On to `O=C(N/N=C\c1ccccc1Cl)c1ccco1`, for which the survivor count under setting [10] is 0 of 4.
As for `NNC(=S)Nc1cccc(Cl)c1`, the survivor count under setting [11] is recorded as 0 of 6.
For `CCCC[n+]1cccc(C(=O)c2ccccc2)c1`, the survivor count is, setting by setting: (dose: 150.0 mg/kg/injection, schedule: Q01DX001 (ip), vehicle: saline) 2 of 6; under setting [11], 0 of 6.
As to `CC(C)(C)OC(=O)NOc1ccc([N+](=O)[O-])cc1[N+](=O)[O-]`, the survivor count reads like this: (dose: 100.0 mg/kg/injection, schedule: Q04DX003 (ip), vehicle: saline with Tween-80) 3 of 6; under setting [8], 0 of 6; under setting [12], 4 of 6; under setting [9], 0 of 6; under setting [13], 0 of 6.
For the compound `CC(SS(=O)(=O)O)C(N)=NCc1ccccc1` (stereo not drawn), the survivor count by setting is: under setting [5], 3 of 3; under setting [6], 2 of 3; under setting [7], 1 of 3.
Take `CC(C)(C)c1ccc(N)cc1Br`: the survivor count reads like this: (dose: 6.25 mg/kg/injection, schedule: Q01DX009 (ip), vehicle: saline with Tween-80) 6 of 6; under setting [4], 6 of 6; (dose: 200.0 mg/kg/injection, schedule: Q01DX009 (ip), vehicle: saline with Tween-80) 0 of 6; under setting [13], 2 of 6.
For the compound `CC(=O)Nc1cc2c3ccccc3ccc2c2ccccc12`, the survivor count reads like this: under setting [14], 6 of 6; under setting [10], 6 of 6.
In the case of `O=[N+]([O-])c1ccc(S(=O)(=O)N2CCN(S(=O)(=O)c3ccc([N+](=O)[O-])cc3)C2)cc1`, the survivor count (dose: 200.0 mg/kg/injection, schedule: Q01DX009 (ip), vehicle: Klucel (hydroxypropylcellulose) (HPC)) is recorded as 6 of 6.
On to `CCCCCC(CN(C)C)C(=O)/C=C/c1ccccc1Cl` (stereo not drawn), for which the survivor count is on record as 5 of 6 (dose: 100.0 mg/kg/injection, schedule: Q01DX009 (ip), vehicle: other); 0 of 6 (dose: 200.0 mg/kg/injection, schedule: Q01DX009 (ip), vehicle: other); 0 of 6 (dose: 400.0 mg/kg/injection, schedule: Q01DX009 (ip), vehicle: other).
`O=C(C[n+]1cccc2ccccc21)c1ccc(-c2ccccc2)cc1`: the survivor count (dose: 100.0 mg/kg/injection, schedule: Q01DX001 (ip), vehicle: Klucel (hydroxypropylcellulose) (HPC)) is given as 2 of 6 and the survivor count under setting [15] is given as 0 of 6.
Consider `COc1ccc(/C=N/NC(N)=S)c(OC)n1`, for which the T/C (dose: 10.0 mg/kg/injection, schedule: Q04DX003 (ip), vehicle: Klucel (hydroxypropylcellulose) (HPC)) was 126 % of control [4 of 6 alive]. Also, the survivor count runs as follows: (dose: 200.0 mg/kg/injection, schedule: Q04DX003 (ip), vehicle: Klucel (hydroxypropylcellulose) (HPC)) 3 of 6; under setting [16], 0 of 6.
As for `NNC(=O)c1ccc(Cl)cc1Nc1ccc(Cl)cc1`, the survivor count (dose: 200.0 mg/kg/injection, schedule: Q01DX001 (ip), vehicle: Klucel (hydroxypropylcellulose) (HPC)) is recorded as 1 of 6 and the survivor count under setting [15] is reported as 0 of 6.
`CCOC(=O)/C(C#N)=C(\C)CC(C)C`: the survivor count reads like this: (dose: 200.0 mg/kg/injection, schedule: Q01DX001 (ip), vehicle: saline) 1 of 4; (dose: 400.0 mg/kg/injection, schedule: Q01DX001 (ip), vehicle: saline) 0 of 4.
As for `O=C1OCCS1`, the survivor count under setting [1] was 1 of 6 and the survivor count under setting [2] is on record as 0 of 6.
For the compound `Cc1cccc(C(=O)N(C)C(c2ccco2)P(=O)(c2ccccc2)c2ccccc2)c1` (stereo not drawn), where the note is “dose: 200.0 mg/kg/injection, schedule: Q01DX009 (ip), vehicle: carboxymethylcellulose (CMC)”, the survivor count is listed as 6 of 6.
As for `CC1(C)N=C(N)N=C(N)N1c1ccc(Cl)c(C(F)(F)F)c1`, the T/C reads like this: (dose: 5.56 mg/kg/injection, schedule: Q01DX009 (ip), vehicle: saline with Tween-80) 126 % of control; (dose: 12.5 mg/kg/injection, schedule: Q01DX009 (ip), vehicle: saline with Tween-80) 131 % of control; (dose: 18.75 mg/kg/injection, schedule: Q01DX009 (ip), vehicle: saline with Tween-80) 139 % of control. Moreover, the survivor count runs as follows: under setting [3], 6 of 6; (dose: 75.0 mg/kg/injection, schedule: Q01DX009 (ip), vehicle: saline with Tween-80) 6 of 6; under setting [12], 3 of 6; under setting [13], 1 of 6.
Turning to `O=C(NCCCN1CC1)C(=O)Nc1ccccn1`, the survivor count under setting [16] was 0 of 6.
`Cc1csc(NC(=O)C2C3CCC(O3)C2C(=O)O)n1` (stereo not drawn): the survivor count is given as 2 of 4 (dose: 20.0 mg/kg/injection, schedule: Q01DX001 (ip), vehicle: carboxymethylcellulose (CMC)); 0 of 4 (dose: 40.0 mg/kg/injection, schedule: Q01DX001 (ip), vehicle: carboxymethylcellulose (CMC)); 0 of 4 (dose: 50.0 mg/kg/injection, schedule: Q01DX001 (ip), vehicle: carboxymethylcellulose (CMC)); 0 of 4 (dose: 80.0 mg/kg/injection, schedule: Q01DX001 (ip), vehicle: carboxymethylcellulose (CMC)); 0 of 4 (dose: 100.0 mg/kg/injection, schedule: Q01DX001 (ip), vehicle: carboxymethylcellulose (CMC)); 0 of 4 under setting [14]. Also, under setting [10], the survivor count is reported as 0 of 4.
For the compound `O=C(O)c1ccc([N+](=O)[O-])c(P(=O)(O)O)c1`, the survivor count under setting [11] is 2 of 6.
The same measure, in the same setting: under `CN1CCCN(C(=S)S)CC1` stands 1 of 6.

The record behind these values is PubChem BioAssay AID248 (DTP/NCI, 2004).
